# Screening data, single-dose tests

Amino acid sequences for entries named in this document (tags omitted). Residues count along the entry.
UniProt P9WNZ1, whole entry: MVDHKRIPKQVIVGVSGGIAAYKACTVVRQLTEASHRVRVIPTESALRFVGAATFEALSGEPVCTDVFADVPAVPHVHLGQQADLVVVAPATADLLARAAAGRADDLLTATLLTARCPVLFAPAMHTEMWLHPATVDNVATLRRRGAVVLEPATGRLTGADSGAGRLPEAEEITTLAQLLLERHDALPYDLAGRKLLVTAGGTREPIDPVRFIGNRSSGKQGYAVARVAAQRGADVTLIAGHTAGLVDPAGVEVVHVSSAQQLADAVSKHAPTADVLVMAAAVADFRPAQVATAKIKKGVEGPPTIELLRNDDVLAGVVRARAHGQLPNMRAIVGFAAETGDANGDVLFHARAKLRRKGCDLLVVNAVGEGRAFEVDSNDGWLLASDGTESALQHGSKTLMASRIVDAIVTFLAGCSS
UniProt I6X8D2, whole entry: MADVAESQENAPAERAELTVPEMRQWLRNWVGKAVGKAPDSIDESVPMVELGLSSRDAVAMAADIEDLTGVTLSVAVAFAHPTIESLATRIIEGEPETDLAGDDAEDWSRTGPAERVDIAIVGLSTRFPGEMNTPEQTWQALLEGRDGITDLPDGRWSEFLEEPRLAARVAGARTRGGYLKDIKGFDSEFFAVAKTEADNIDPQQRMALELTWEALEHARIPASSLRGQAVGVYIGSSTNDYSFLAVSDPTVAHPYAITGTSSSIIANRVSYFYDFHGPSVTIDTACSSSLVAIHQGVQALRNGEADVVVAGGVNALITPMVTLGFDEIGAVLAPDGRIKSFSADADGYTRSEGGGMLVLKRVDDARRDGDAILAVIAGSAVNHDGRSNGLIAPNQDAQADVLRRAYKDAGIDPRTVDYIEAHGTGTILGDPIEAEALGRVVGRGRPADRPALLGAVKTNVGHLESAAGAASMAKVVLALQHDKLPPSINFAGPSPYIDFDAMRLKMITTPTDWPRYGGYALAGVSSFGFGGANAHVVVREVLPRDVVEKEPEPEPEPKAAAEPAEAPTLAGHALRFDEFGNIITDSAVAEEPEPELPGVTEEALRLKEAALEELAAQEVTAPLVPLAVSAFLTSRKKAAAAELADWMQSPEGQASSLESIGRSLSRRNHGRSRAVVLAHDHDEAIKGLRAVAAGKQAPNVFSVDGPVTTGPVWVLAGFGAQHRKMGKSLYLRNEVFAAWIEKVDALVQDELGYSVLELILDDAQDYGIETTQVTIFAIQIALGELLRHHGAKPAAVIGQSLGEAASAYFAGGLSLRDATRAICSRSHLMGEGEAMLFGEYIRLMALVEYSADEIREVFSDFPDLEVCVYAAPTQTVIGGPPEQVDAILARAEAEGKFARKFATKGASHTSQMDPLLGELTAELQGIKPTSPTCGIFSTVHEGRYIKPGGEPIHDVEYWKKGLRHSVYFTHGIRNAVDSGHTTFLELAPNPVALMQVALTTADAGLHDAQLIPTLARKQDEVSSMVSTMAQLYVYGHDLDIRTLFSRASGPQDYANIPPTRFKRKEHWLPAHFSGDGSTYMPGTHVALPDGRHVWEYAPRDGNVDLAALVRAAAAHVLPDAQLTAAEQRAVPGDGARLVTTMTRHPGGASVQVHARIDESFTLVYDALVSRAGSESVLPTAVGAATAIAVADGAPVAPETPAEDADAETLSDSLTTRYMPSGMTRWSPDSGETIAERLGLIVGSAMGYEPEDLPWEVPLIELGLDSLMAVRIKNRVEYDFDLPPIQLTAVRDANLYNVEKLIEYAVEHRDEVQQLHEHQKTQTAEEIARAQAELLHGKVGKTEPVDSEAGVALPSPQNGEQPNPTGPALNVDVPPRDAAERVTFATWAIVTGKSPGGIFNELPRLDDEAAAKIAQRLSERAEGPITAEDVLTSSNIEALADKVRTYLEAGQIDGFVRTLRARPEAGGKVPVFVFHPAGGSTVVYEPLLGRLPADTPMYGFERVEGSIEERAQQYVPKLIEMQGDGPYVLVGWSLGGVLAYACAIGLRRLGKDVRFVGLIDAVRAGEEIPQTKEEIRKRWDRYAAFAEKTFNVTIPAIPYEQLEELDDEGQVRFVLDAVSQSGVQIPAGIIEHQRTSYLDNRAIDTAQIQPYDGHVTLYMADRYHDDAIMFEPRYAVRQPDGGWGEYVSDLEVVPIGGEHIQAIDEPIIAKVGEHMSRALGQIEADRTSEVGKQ
UniProt P9WPC5, whole entry: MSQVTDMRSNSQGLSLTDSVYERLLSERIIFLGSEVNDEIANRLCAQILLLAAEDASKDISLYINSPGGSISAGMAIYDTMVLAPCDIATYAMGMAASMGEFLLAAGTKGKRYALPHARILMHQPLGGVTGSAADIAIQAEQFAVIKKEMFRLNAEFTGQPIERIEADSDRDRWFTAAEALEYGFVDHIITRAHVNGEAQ
UniProt P9WPC3, whole entry partner: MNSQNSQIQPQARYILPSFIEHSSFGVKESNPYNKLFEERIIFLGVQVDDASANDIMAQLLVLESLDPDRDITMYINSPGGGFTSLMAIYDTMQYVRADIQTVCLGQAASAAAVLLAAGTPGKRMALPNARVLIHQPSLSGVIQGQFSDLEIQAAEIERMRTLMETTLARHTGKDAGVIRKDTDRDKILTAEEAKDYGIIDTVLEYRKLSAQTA
UniProt Q4DA54, 1-478: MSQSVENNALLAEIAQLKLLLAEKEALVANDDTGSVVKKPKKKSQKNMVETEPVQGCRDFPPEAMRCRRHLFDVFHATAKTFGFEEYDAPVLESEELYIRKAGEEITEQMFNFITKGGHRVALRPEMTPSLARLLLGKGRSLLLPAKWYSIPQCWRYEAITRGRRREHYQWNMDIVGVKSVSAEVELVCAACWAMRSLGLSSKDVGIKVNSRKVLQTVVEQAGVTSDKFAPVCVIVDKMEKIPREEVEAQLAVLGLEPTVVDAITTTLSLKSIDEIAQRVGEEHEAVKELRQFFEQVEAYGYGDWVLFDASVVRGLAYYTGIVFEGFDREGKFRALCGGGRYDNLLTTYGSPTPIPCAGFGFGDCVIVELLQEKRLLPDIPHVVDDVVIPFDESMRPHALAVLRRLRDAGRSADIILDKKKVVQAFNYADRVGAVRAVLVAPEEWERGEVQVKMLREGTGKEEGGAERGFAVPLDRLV

The values are deposited in ChEMBL (CHEMBL3988442, “University of Dundee, Small-Polar-MMV Screening Library” (2021)).

Results are given as percent effect. How 0% and 100% were set is not recorded. Most values in the screen are low, and negative values occur. The compounds are a random part of those screened. Two or more numbers in one place are separate tests of the same structure; such repeats can differ widely. A dash means the value is not listed here; it may have been measured.

CoaBC: 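Enzyme assay of CoaBC with a phosphate dye (Biomol Green) read at 650 nm. Target: Coenzyme A biosynthesis protein CoaBC, Mycobacterium tuberculosis (UniProt P9WNZ1). Concentration: 30 µM. Direction is inferred from only a few compounds that gave an IC50; most scored high, so higher reads as stronger inhibition. Most strong results did not repeat in a second test. Size under these conditions: about 67,000 compounds, about 40 of them at 50% or above in at least one test.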
Leishmania in macrophages: 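Cell assay of Leishmania donovani living inside macrophages; the read-out is not stated. Tested at 30 µM. Direction is inferred from retests: higher values go with stronger inhibition. Size under these conditions: about 69,000 compounds, about 1,000 of them at 50% or above in at least one test.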
Pks13 thioesterase: 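Polyketide synthase Pks13, Mycobacterium tuberculosis (UniProt I6X8D2). Enzyme assay of the thioesterase domain of polyketide synthase 13; the read-out is not stated. Compounds at 30 µM. The record gives no direction; the compounds picked for IC50 retests had high values, so higher reads as stronger inhibition. Of about 67,000 compounds tested this way, about 300 (0.46%) reached 50% or more in at least one test.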
ClpP1P2: 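Protease assay of ClpP1P2, read by the AMC dye that it sets free. Target: ClpP1P2, Mycobacterium tuberculosis (UniProt P9WPC5 and UniProt P9WPC3). Compounds at 50 µM. Higher reads as stronger inhibition, judged from the few compounds that gave an IC50. Most other retested compounds had strongly negative values. Size under these conditions: about 69,000 compounds, about 10 of them at 50% or above in at least one test.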
TcHisRS: 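Enzyme assay of histidyl-tRNA synthetase; the read-out is not stated. Target: Histidine-tRNA ligase, Trypanosoma cruzi CL Brener (UniProt Q4DA54). Tested at 30 µM. The record gives no direction; compounds that gave an IC50 in retests scored well above the rest, so higher reads as stronger inhibition. Of about 69,000 compounds tested this way, about 31 (0.045%) reached 50% or more in at least one test.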

compound | CoaBC | Leishmania in macrophages | Pks13 thioesterase | ClpP1P2 | TcHisRS
COC(=O)c1oc(CNC(C)(C)CO)cc1C | 2.593 | -13.08 | -21.65 | 1.726 | 2.02
CC(=O)Nc1cc(CN(C)C)ccc1C | - | 7.908 | -46.28 | 7.071 | 5.732
Cc1ccc(S(=O)(=O)N2CCC3(CC(C(=O)NCC(C)C)=NO3)C2)cc1 (configuration not stated) | 6.303 | 29.17 | -7.225 | 0.8826 | -57.02
CCn1cc(NS(=O)(=O)c2ccc(Br)s2)c(C(N)=O)n1 | 14.77 | 1.911 | -2.86 | -8.466 | 3.093
Cc1oc(-c2cccc(F)c2)nc1CN1CCOCS1(=O)=O | 14.16 | 24.88 | -42.63 | -5.143 | 1.093
CCCC(=O)NCCCn1ncc2c(C)cccc21 | -2.079 | 6.319 | -2.947 | 6.218 | 5.217
CCN1C(=O)CC(c2ccccc2)C12CCN(CC1CCOCC1)CC2.O=C(O)C(F)(F)F (configuration not stated) | - | 5.939 | - | - | -
CC(C)N(C)Cc1cc(=O)n2c(n1)CN(C(=O)c1cnccn1)CCC2 | 0.7317 | 33.38 | 0.9968 | -4.734 | 4.444
[H][C@@]12CCN(Cc3ccncc3)C[C@]1([H])O[C@H](C(=O)N(C)C)C2 | - | 15.78 | - | - | -
CN(C)CC(=O)N1CCC2(CCN(Cc3ccccn3)C2=O)C1 (configuration not stated) | 0.9009 | -8.021 | -5.103 | -13.53 | -0.5464
O=C(NC[C@]12COC[C@H]1CN(Cc1cccnc1)C2)C1CCC1 | 4.332 | - | -12.86 | -7.142 | 1.508
CC(=O)c1c(F)cccc1N1CCC(Cc2cccnc2)CC1 | 10.97 | 48.38 | 14.29 | -10.95 | 3.306
CSC1(CNC(=O)N(C)Cc2ccc(Cl)s2)CCOCC1 | -1.167 | -42.36 | -2.342 | 18.35 | -10
NC(=O)[C@@H]1Cc2ccccc2CN1S(=O)(=O)N1CCCCCC1 | 1.456 | 1.946 | 4.213 | 4.986 | 10.89
CCC1=N[C@@]2(CC[C@@H]3CN(Cc4ccc(Cl)cc4)C[C@@H]32)C(=O)N1 | 5.141 | - | -38.94 | -5.919 | 1.657
CC(C)C(C(=O)NC1CCOCC1)n1cnc2cc(F)c(F)cc21 (configuration not stated) | 0.3984 | 0.7775 | -10.36 | -12.64 | 0
Cc1c(NCCOCC(F)(F)F)cccc1C(=O)N1CCCC1 | 4.435 | 11.48 | -2.182 | -1.661 | 4.202
Cc1nn(C)cc1-c1cc(C(=O)NCC(C)(C)c2ccc(F)cc2)n[nH]1 | -4.306 | -14.54 | -12.62 | -7.15 | 5.747
COc1cc(N2CCCn3cnc(COC(C)C)c3C2)ncn1 | 7.822 | - | -11.64 | 3.77 | 5.376
CCCNC(=O)COc1cc(C)c2c(C)nn(-c3ccc(C)cc3)c2n1 | 1.186 | -2.58 | 1.377 | -14.57 | 3
CC(C)c1ccc(OCCC(=O)N(C)C)cc1 | -6.699 | -39.81 | 28.23 | -1.927 | 4.902
O=C(NC1CC1)N1CCc2ccc(=O)n(CC3CC3)c2CC1 | 2.326 | 10.76 and 2.186 | -33.81 | 0.81 | 6.452
O=C(NC1CCC1)C1CCC2(CN(C(=O)c3ccco3)C2)O1 (configuration not stated) | - | 21.43 | -24.84 | 1.772 | 8.589
COc1c(CNCc2ccccc2CN2CCOCC2)c(C)nn1C | 9.091 | 15.12 | -30.02 | -1.532 | -0.5435
Cc1ccc(S(=O)(=O)c2ncccc2CN2CCOCC2)cc1 | 4.04 | -9.357 | -11.07 | -24.61 | -2.924
CC1CCCCN1c1nc2c(c(=O)[nH]1)CCN(Cc1ccccc1O)C2 (configuration not stated) | 0 | 20.2 and 6.619 | - | -0.7963 | 1.099
CNC(=O)c1ccc(S(=O)(=O)NCCc2ccccn2)cc1 | 0.3165 | 15.18 | -3.446 | -5.21 | 9.36
COc1ccc(CN(C)C(=O)NCc2c(C)cc(C)[nH]c2=O)cc1 | 11.52 | 3.052 | -14.72 | 1.236 | -3.788
Oc1cccc(C2CN(c3nnc(C4CC4)s3)CCO2)c1 (configuration not stated) | -4.464 | 9.182 | -42.84 | -5.084 | 7.182
O=S(=O)(CCCN1CCCC1Cn1cccn1)c1ccccc1 (configuration not stated) | 0 | 7.799 | -3.533 | -2.461 | 7.985
CCN(C)c1ccc(CNS(=O)(=O)CC2CCCO2)cc1F (configuration not stated) | 7.042 | 2.039 | -3.873 | -8.225 | 5.056
Cc1nnc(N2CCN(C(=O)NC3CC3)CC2)c(C(N)=O)c1C | -0.4878 | 26.76 | -5.573 | -17.08 | -9.804
[H][C@@]12CCN(C(=O)C3CC(F)(F)C3)C[C@]1(COCC1CC1)CCO2 | - | 17.67 | - | - | -
O=S(=O)(CC1CC1)c1ncc(CN2CCSCC2)n1CC1CCCO1 (configuration not stated) | -3.353 | 21.03 | -24.68 | -5.112 | 5.291
O=C1CCCN1c1cccc(CNCc2cc(F)ccc2F)c1 | 6.773 | -27.08 | -8.744 | -0.8341 | 1.053

Repeated from the top, 3 entries:

{"compound": "COC(=O)c1oc(CNC(C)(C)CO)cc1C", "CoaBC": 2.593, "Leishmania in macrophages": -13.08, "Pks13 thioesterase": -21.65, "ClpP1P2": 1.726, "TcHisRS": 2.02}
{"compound": "CC(=O)Nc1cc(CN(C)C)ccc1C", "Leishmania in macrophages": 7.908, "Pks13 thioesterase": -46.28, "ClpP1P2": 7.071, "TcHisRS": 5.732}
{"compound": "Cc1ccc(S(=O)(=O)N2CCC3(CC(C(=O)NCC(C)C)=NO3)C2)cc1", "stereo": "configuration not stated", "CoaBC": 6.303, "Leishmania in macrophages": 29.17, "Pks13 thioesterase": -7.225, "ClpP1P2": 0.8826, "TcHisRS": -57.02}